From patent US20100003217A1, “Compounds and Pharmaceutical Compositions for the Treatment of Viral Infections” (priority 2008, published 2010) come the findings set out here.

This series in a line: Rat plasma pharmacokinetics of total radioactivity after [^14C]-Compound 1. The note with it: PO 100 mg/kg; for Plasma total radioactivity concentration, Mean: group mean; for Plasma total radioactivity concentration: Group 2A, individual rats, 100 mg/kg. In kind it is in vivo, male Sprague-Dawley rats. How it is done:
A preliminary rat metabolism study was conducted with radiolabeled Compound 1. The compound was labeled with [^14C] in the C-8 position of the guanine moiety. The objectives of the study were to determine, 1) the plasma pharmacokinetics of total radioactivity, 2) the time-course of total radioactivity and the amount of 2′-C-methyl guanosine-5′-TP in liver, 3) the major route of excretion, and 4) the metabolic profile in excreta, liver, and plasma.
Isotopically diluted [^14C]-Compound 1 was administered intravenously to male Sprague-Dawley rats at 50 mg/kg or by oral gavage at 100 mg/kg.
The plasma concentration-time data for total radioactivity was analyzed using Microsoft® Office Excel 2003 to obtain the area under the concentration-time curve (AUC). AUC0-24 (area under the concentration-time curve from 0 to 24 h after dosing) was calculated using the linear trapezoidal rule and nominal sampling times. For the IV dose group, concentration at time zero was extrapolated from the concentration data for the first two time points. The maximum (peak) plasma concentrations (Cmax) and the time to peak concentrations (tmax) were the observed values. Descriptive statistics were prepared in Excel.
Radioanalyses of plasma samples were conducted. The plasma concentration data for total radioactivity expressed as μg equivalents/mL are summarized below: […]

Molecules are shown by their SMILES. Values joined by “and” are separate entries in the source; they are usually repeats but may differ in a detail not shown here. Identical values can stand only once. Further values from the same series stand in other lists.

Take `CC(C)(CO)C(=O)SCCOP(=O)(NCc1ccccc1)OC[C@H]1O[C@@H](n2cnc3c(=O)[nH]c(N)nc32)[C@](C)(O)[C@@H]1O` (stereo partly shown) [[^14C] Compound 1]: for the setting “1 h”, the “Plasma total radioactivity concentration, Mean” value is 0.404 μg Equivalents/mL; the “Plasma total radioactivity concentration” value was 0.305 μg Equivalents/mL and 0.439 μg Equivalents/mL and 0.470 μg Equivalents/mL and 0.401 μg Equivalents/mL. Moreover, where the note is “2 h”, the “Plasma total radioactivity concentration, Mean” value came out at 0.869 μg Equivalents/mL; the “Plasma total radioactivity concentration” value was 0.634 μg Equivalents/mL and 0.877 μg Equivalents/mL and 1.086 μg Equivalents/mL and 0.879 μg Equivalents/mL.
